Test results published in PubChem BioAssay AID2685 (National Center for Advancing Translational Sciences (NCATS), 2010).
The other results are listed elsewhere or left out. These are further read-outs of the screen, such as a control signal, another cell line or another target. No call is given for them. Compounds called inactive in the main read-out are mostly missing here. Potencies come from curve fits of mixed quality, noted in brackets.

Assay: qHTS Assay for Lipid Storage Modulators in Drosophila S3 Cells;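 as to cell number change: cells counted by Cell Tracker Red CMTPX staining in the red channel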
Settings: BODIPY lipid droplet fluorescence, 18-24 h; for cell number change: measured here: cell count max response, cells fed with added oleic acid
In short: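 Drosophila S3 cells loaded with oleic acid (400 uM, as added) and compounds at several concentrations; lipid droplets imaged by 488-nm laser-scanning cytometry, 500–530 nm intensity and object ratio to cell channel. Percent activity normalized to 20 uM Triacsin C.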

[1] = measured here: cell number channel AC50, cells fed with added oleic acid
[2] = measured here: lipid fluorescence (Fed channel) AC50, cells fed with added oleic acid

Compound	cell number change [%]	AC50 [1]	AC50 [2]
C[C@H]1CCC(=O)N([C@H](CC#N)Cc2ccccc2)CC1	25.6	0.291 µM [rising, partial curve, poor fit]	
Cc1nc(NCc2ccco2)nc2c1C(=O)CC(C)C2 (configuration not stated)	8.44		29.1 µM [rising, single point]
O=C(N/N=C/c1sc(N2CCOCC2)nc1-c1ccccc1)c1ccccc1Cl	-20.3		
Cc1ccc(NC(=O)COC(=O)Cn2ccc(C(F)(F)F)n2)cc1Cl	-32.8	29.1 µM [falling, single point]	14.6 µM [falling, partial curve, poor fit]
CCOC(=O)CNC(=O)CSc1ncnc2c1cnn2-c1ccccc1	66.6	13 µM [rising, partial curve]	2.31 µM [falling, partial curve]
CCCC(=O)N=C1SC2CS(=O)(=O)CC2N1c1ccc(-c2nc3ccc(C)cc3s2)cc1 (configuration not stated)	-18.2		1.3 µM [falling, partial curve]
CN1CCN(C(=O)c2ccc(N(Cc3ccc(Cl)cc3)S(C)(=O)=O)cc2)CC1	20.4		16.4 µM [rising, single point]
CCN(CC)C(=O)CSC1=Nc2ccccc2C2=NC(c3ccccc3)C(=O)N12 (configuration not stated)	59	20.6 µM [rising, single point]	
COc1cc(NC(=O)CCc2nnc3ccc(NCc4ccco4)nn23)cc(OC)c1	-18		29.1 µM [falling, single point]
O=S(=O)(c1ccccc1F)N1CCC(Oc2ccc(-n3cnnn3)cc2)CC1	-18.2		
O=c1oc(-c2ccccc2NS(=O)(=O)c2ccc3ccccc3c2)nc2ccccc12	3.17		0.411 µM [rising, full curve, poor fit]
CCC1=C(OC(=O)N(CC)CC)N2C(=O)OC(=NCCc3c[nH]c4ccccc34)[C@]2(Cc2ccccc2)[C@H]2C1=CC[C@H]1C(=O)NC(=O)[C@H]12	-29.9		7.31 µM [falling, partial curve, poor fit]
CC(=O)OC(C(=O)Nc1nccs1)c1ccccc1 (configuration not stated)	10.6		29.1 µM [rising, single point]
COc1ccc(S(=O)(=O)N2CCC(C(N)=O)CC2)cc1C(=O)N1CCCCCC1	16.7		
O=C1CC(N2CCN(C/C=C/c3ccccc3)CC2)C(=O)N1CCc1ccccc1 (configuration not stated)			20.6 µM [falling, partial curve, poor fit]
CC(C)c1cc(C(C)C)n2nc(N)nc2n1	-13.1		0.00461 µM [falling, full curve, poor fit]
Cc1ccc(NC(=O)CN(C)C(=O)COC(=O)CCS(=O)(=O)c2ccc(C)cc2)cc1	-8.91		29.1 µM [falling, single point]
O=C(OC1CCOC1=O)c1ccc(CO)cc1 (configuration not stated)			6.51 µM [falling, single point]
CCOC(=O)c1cccc(OC(=O)CCNC(=O)c2ccc(Cl)cc2)c1	21.7		36.6 µM [rising, partial curve, poor fit]
O=C(CN1C(=O)S/C(=C/c2ccncc2)C1=O)N1CCOCC1	-0.647		1.3 µM [rising, partial curve, poor fit]
CCC(C)(C)n1nnnc1C(c1cc2cc(C)ccc2[nH]c1=O)N1CCCC1 (configuration not stated)	162	16.4 µM [rising, partial curve]	6.51 µM [rising, single point]
O=C(CC1NC(=O)NC1=O)Nc1ccc(Cl)cc1 (configuration not stated)	12.9		0.0058 µM [rising, full curve, poor fit]
O=C(O)CNC(=S)N(Cc1ccccc1)Cc1cccnc1	-7.68		0.13 µM [falling, full curve]
Cc1cccc(NC(=O)CN2C(=O)CNC2=O)c1	9.21		20.6 µM [falling, single point]
COc1ccccc1CNC(=O)c1ccc(S(=O)(=O)N(C)c2ccccc2)cc1	106	5.17 µM [rising, full curve]	
Cc1cc(NS(=O)(=O)c2ccc(NC(=O)NC(C)(C(F)(F)F)C(F)(F)F)cc2)no1	-13.9		3.26 µM [falling, partial curve, poor fit]
O=S(=O)(Nc1ccccc1)c1ccc(-c2cnc(C3CC3)o2)cc1	-67.9	23.1 µM [falling, single point]	
COc1ccc(-c2nc(-c3ccccn3)no2)cc1	21.8		13 µM [rising, partial curve]
COC(=O)[C@@]1(Cc2ccccc2)[C@H]2c3cc(C(=O)N4CCCC4)n(Cc4ccsc4Br)c3C[C@H]2CN1C(=O)c1ccccc1	-38	3.66 µM [falling, full curve, poor fit]	5.17 µM [falling, full curve, poor fit]

Part of the list above, as a markdown table.

| Compound | cell number change [%] | AC50 [1] | AC50 [2] |
| --- | --- | --- | --- |
| CCC(C)(C)n1nnnc1C(c1cc2cc(C)ccc2[nH]c1=O)N1CCCC1 (configuration not stated) | 162 | 16.4 µM [rising, partial curve] | 6.51 µM [rising, single point] |
| O=C(CC1NC(=O)NC1=O)Nc1ccc(Cl)cc1 (configuration not stated) | 12.9 |  | 0.0058 µM [rising, full curve, poor fit] |
| O=C(O)CNC(=S)N(Cc1ccccc1)Cc1cccnc1 | -7.68 |  | 0.13 µM [falling, full curve] |
| Cc1cccc(NC(=O)CN2C(=O)CNC2=O)c1 | 9.21 |  | 20.6 µM [falling, single point] |
| COc1ccccc1CNC(=O)c1ccc(S(=O)(=O)N(C)c2ccccc2)cc1 | 106 | 5.17 µM [rising, full curve] |  |
| Cc1cc(NS(=O)(=O)c2ccc(NC(=O)NC(C)(C(F)(F)F)C(F)(F)F)cc2)no1 | -13.9 |  | 3.26 µM [falling, partial curve, poor fit] |
| O=S(=O)(Nc1ccccc1)c1ccc(-c2cnc(C3CC3)o2)cc1 | -67.9 | 23.1 µM [falling, single point] |  |
| COc1ccc(-c2nc(-c3ccccn3)no2)cc1 | 21.8 |  | 13 µM [rising, partial curve] |
